Entries after “also recorded” stand apart in the source; their conditions may differ.
Experiments:
SNX27_PDZ [1] = experiment: AP-MS control pull-down on leftover resin, SNX27_PDZ bait, total SH-SY5Y extracts; assay type: binding, human; conditions: threshold 1 σ
Experimental: Leftover beads from nHU-MS experiments were washed three times immediately after the separation of the supernatant [10 resin volume in buffer containing 50 mM tris (pH 8.5), 150 mM NaCl, 1% Triton X-100, 10× cOmplete EDTA-free protease inhibitor cocktail, 2 mM EDTA, and 1 mM TCEP]. Then, the beads were washed two times [10 resin volume buffer containing 50 mM tris (pH 8.5), 150 mM NaCl, and 1 mM TCEP]. Last, captured protein was eluted from the resin in two steps, and the eluted fractions were pooled. For each elution, the beads were incubated for 30 min with three resin volume buffer containing 20 mM tris (pH 8.5), 100 mM NaCl, 500 μM TCEP, and 8 M urea. Between each step, the beads were separated by mild centrifugation, and the supernatant was removed by gentle pipetting.
The nHU samples were precipitated with trichloroacetic acid (TCA) 20% overnight at 4°C and centrifuged at 14,000 rpm for 10 min at 4°C. The protein pellets were washed twice with 1 ml of cold acetone and air-dried. The protein extracts were solubilized in 8 M urea, reduced with 5 mM TCEP for 30 min, and alkylated with 10 mM iodoacetamide for 30 min in the dark. Double digestion was performed at 37°C with 500 ng of endoproteinase Lys-C (Wako, Richmond, USA) for 4 hours, followed by fourfold dilution and an overnight digestion with 500 ng of trypsin (Promega, Charbonnieres les Bains, France). Peptide mixtures were then desalted on a C18 spin-column and dried on a speed vacuum.
Samples were analyzed using an Ultimate 3000 nano-RSLC coupled in line via a nano-electrospray ionization source, with an LTQ-Orbitrap ELITE mass spectrometer (Thermo Fisher Scientific, San Jose, CA) or with the Orbitrap Exploris 480 mass spectrometer (Thermo Fisher Scientific, Bremen, Germany) equipped with a high field asymmetric ion mobility spectrometry (FAIMS) module. […]

[2] = system: isolated PDZ domains (SNX27, TAX1BP3, SCRIB PDZ_1, SCRIB PDZ_2, DLG1 PDZ_1, DLG1 PDZ_2); experiment: nHU-MS with six isolated PDZ domain baits / summary of nHU-MS experiments; assay type: binding, human; conditions: Jurkat extract
full-length SNX27 = experiment: nHU-WB titration, full-length SNX27 bait, total Jurkat extracts; assay type: binding
Experimental: The empty His6-AviTag-MBP-TEV vector was used to produce biotinylated MBP for control experiments. Proteins were coexpressed with BirA biotin ligase (PET21a-BirA, Addgene, no. 20857) in Escherichia coli BL21(DE3) cells. At isopropyl-β-D-thiogalactopyranoside (IPTG) induction (1 mM IPTG at 18°C overnight), 50 μM biotin was added to the media. […] Lysates were frozen at -20°C before further purification steps. Lysates were sonicated and centrifuged for clarification. Expressed proteins were captured on in-house prepacked Ni-IDA (Protino Ni-IDA Resin, Macherey-Nagel, Duren, Germany) columns and were washed with at least 10 column volumes of cold wash buffer [50 mM tris (pH 7.5), 150 mM NaCl, and 2 mM β-mercaptoethanol] before elution with 250 mM imidazole. The Ni elution was collected directly on a preequilibrated amylose column (amylose high flow resin, New England Biolabs, Ipswich, MA). […] The concentration of proteins was determined by their ultraviolet absorption at 280 nm before aliquots were snap-frozen in liquid nitrogen and stored at -80°C. […] To saturate streptavidin resin with biotinylated proteins, 50 μl of streptavidin resin (Streptavidin Sepharose High Performance, Cytiva) was mixed with biotinylated MBP or MBP-PDZ at 40 to 50 μM concentration in 20× resin volume for 60 min. […] Last, resins were washed two times (10 resin volume, holdup buffer). […]

SNX27_PDZ [3] = experiment: nHU-WB at various incubation times, SNX27_PDZ bait, Jurkat lysates; assay type: binding; conditions: 15, 30, 120 and 240 min; 10 μM bait
HA-tagged SNX27 = experiment: Colocalization (immunostaining) in U2OS cells expressing HA-tagged SNX27 or SNX27_ΔPDZ; assay type: cell-based; conditions: SNX27 vs SNX27_ΔPDZ, confocal, single-cell PCC, n > 20

With ELOC: Elongin-C the BINDER_AP (SNX27_PDZ [1]) was “DOES NOT BIND”.

In the case of KARS1: Lysine--tRNA ligase, the BINDER_AP (SNX27_PDZ [1]) is reported as “DOES NOT BIND”.

In the case of VTN: Vitronectin, the BINDER_AP (SNX27_PDZ [1]) is reported as “DOES NOT BIND”.

In the case of “Vimentin: intermediate filament-forming Vimentin, endogenous full-length prey”, the “interaction with isolated PDZ domains” value [2] is reported as “detectable interaction with four different PDZ domains, yet SNX27_PDZ was its strongest binder”, the affinity ranking (full-length SNX27; full-length SNX27) is reported as “stronger than with SLC16A1” and the binding mechanism (full-length SNX27; titration) is reported as “positive cooperative binding mechanism”. For the same substance, the “effect of prolonged incubation time on BI” value (SNX27_PDZ [3]) was “No detectable change; also recorded: did not observe significant change” and the “colocalization with SNX27” value (HA-tagged SNX27) was “not enriched in these SNX27 foci”.

— paper PMC9770967, “Native holdup (nHU) to measure binding affinities from cell extracts” (Science Advances, 2022)
